# Source: the supplement of paper PMC11438910
# Some of the results follow. Most of these values are background signal.
# B1: 3S41.4 (protein)
# chain 1: EVQLVESGGGLVQPGGSLRLSCATSGFTFSNYWMYWFRQAPGKGLEWVSTISGSSTNTYYSGSVKGRFTISRDNAKNTLYLQMNSLRAEDTAVYYCARRGTDSSHWYFDLWGPGTPITVSS
# chain 2: EIVMTQSPATLSLSPGERATLSCRASQSVSSNLAWYQQKPGQGPRLLIYDASNRATGIPDRFGGSGSGTDFTLTISSLEPEDVGVYYCQQESNWPLTFGGGTKVEIK
# Assays:
# Assay in all cases: fluorescence intensity of antibody binding to polysaccharide-coupled beads; higher = stronger binding
# [1] = molecular target: pneumococcal polysaccharide Pn35C
# [2] = molecular target: pneumococcal polysaccharide Pn35F
# [3] = molecular target: pneumococcal polysaccharide Pn36
# [4] = molecular target: pneumococcal polysaccharide Pn37
# [5] = molecular target: pneumococcal polysaccharide Pn38
# [6] = molecular target: pneumococcal polysaccharide Pn39
# [7] = molecular target: pneumococcal polysaccharide Pn4
# [8] = molecular target: pneumococcal polysaccharide Pn40
# [9] = molecular target: pneumococcal polysaccharide Pn41A
# [10] = molecular target: pneumococcal polysaccharide Pn41F
# [11] = molecular target: pneumococcal polysaccharide Pn42
# [12] = molecular target: pneumococcal polysaccharide Pn43
# [13] = molecular target: pneumococcal polysaccharide Pn44
# [14] = molecular target: pneumococcal polysaccharide Pn45
# [15] = molecular target: pneumococcal polysaccharide Pn46
# [16] = molecular target: pneumococcal polysaccharide Pn47A
# [17] = molecular target: pneumococcal polysaccharide Pn47F
# [18] = molecular target: pneumococcal polysaccharide Pn48
# [19] = molecular target: pneumococcal polysaccharide Pn5
# [20] = molecular target: pneumococcal polysaccharide Pn6A
# [21] = molecular target: pneumococcal polysaccharide Pn6B
# [22] = molecular target: pneumococcal polysaccharide Pn6C
# [23] = molecular target: pneumococcal polysaccharide Pn6D
# [24] = molecular target: pneumococcal polysaccharide Pn7A
# [25] = antibody concentration 2337.65 ng/mL
# [26] = antibody concentration 12500 ng/mL
# [27] = antibody concentration 0.1 ng/mL
# [28] = antibody concentration 0.534724 ng/mL
# [29] = antibody concentration 2.8593 ng/mL
# [30] = antibody concentration 15.2894 ng/mL
# [31] = antibody concentration 81.7561 ng/mL
# [32] = antibody concentration 437.17 ng/mL
binder,measurement,setting,value
B1,fluorescence intensity,[1]; [25],22 MFI
same,fluorescence intensity,[1]; [26],31.5 MFI
same,fluorescence intensity,[2]; [27],20 MFI
same,fluorescence intensity,[2]; [28],19 MFI
same,fluorescence intensity,[2]; [29],17.5 MFI
same,fluorescence intensity,[2]; [30],18 MFI
same,fluorescence intensity,[2]; [31],16.5 MFI
same,fluorescence intensity,[2]; [32],20 MFI
same,fluorescence intensity,[2]; [25],20.5 MFI
same,fluorescence intensity,[2]; [26],28.2 MFI
same,fluorescence intensity,[3]; [27],15.5 MFI
same,fluorescence intensity,[3]; [28],14.5 MFI
same,fluorescence intensity,[3]; [29],15 MFI
same,fluorescence intensity,[3]; [30],17 MFI
same,fluorescence intensity,[3]; [31],15.5 MFI
same,fluorescence intensity,[3]; [32],15 MFI
same,fluorescence intensity,[3]; [25],18.5 MFI
same,fluorescence intensity,[3]; [26],53.5 MFI
same,fluorescence intensity,[4]; [27],25 MFI
same,fluorescence intensity,[4]; [28],24.5 MFI
same,fluorescence intensity,[4]; [29],24.5 MFI
same,fluorescence intensity,[4]; [30],24.5 MFI
same,fluorescence intensity,[4]; [31],25 MFI
same,fluorescence intensity,[4]; [32],27 MFI
same,fluorescence intensity,[4]; [25],41.5 MFI
same,fluorescence intensity,[4]; [26],206 MFI
same,fluorescence intensity,[5]; [27],25.5 MFI
same,fluorescence intensity,[5]; [28],25.8 MFI
same,fluorescence intensity,[5]; [29],25.5 MFI
same,fluorescence intensity,[5]; [30],26 MFI
same,fluorescence intensity,[5]; [31],26.5 MFI
same,fluorescence intensity,[5]; [32],26.8 MFI
same,fluorescence intensity,[5]; [25],30 MFI
same,fluorescence intensity,[5]; [26],54 MFI
same,fluorescence intensity,[6]; [27],20 MFI
same,fluorescence intensity,[6]; [28],18 MFI
same,fluorescence intensity,[6]; [29],18.5 MFI
same,fluorescence intensity,[6]; [30],17 MFI
same,fluorescence intensity,[6]; [31],17.2 MFI
same,fluorescence intensity,[6]; [32],19.5 MFI
same,fluorescence intensity,[6]; [25],22.2 MFI
same,fluorescence intensity,[6]; [26],56.5 MFI
same,fluorescence intensity,[7]; [27],17.5 MFI
same,fluorescence intensity,[7]; [28],16.8 MFI
same,fluorescence intensity,[7]; [29],17.5 MFI
same,fluorescence intensity,[7]; [30],16.5 MFI
same,fluorescence intensity,[7]; [31],17.5 MFI
same,fluorescence intensity,[7]; [32],20.5 MFI
same,fluorescence intensity,[7]; [25],25.5 MFI
same,fluorescence intensity,[7]; [26],46.8 MFI
same,fluorescence intensity,[8]; [27],16 MFI
same,fluorescence intensity,[8]; [28],16.5 MFI
same,fluorescence intensity,[8]; [29],15.5 MFI
same,fluorescence intensity,[8]; [30],16.5 MFI
same,fluorescence intensity,[8]; [31],15 MFI
same,fluorescence intensity,[8]; [32],16 MFI
same,fluorescence intensity,[8]; [25],20 MFI
same,fluorescence intensity,[8]; [26],60.8 MFI
same,fluorescence intensity,[9]; [27],22 MFI
same,fluorescence intensity,[9]; [28],23 MFI
same,fluorescence intensity,[9]; [29],23.5 MFI
same,fluorescence intensity,[9]; [30],21.5 MFI
same,fluorescence intensity,[9]; [31],22.2 MFI
same,fluorescence intensity,[9]; [32],24 MFI
same,fluorescence intensity,[9]; [25],25 MFI
same,fluorescence intensity,[9]; [26],31 MFI
same,fluorescence intensity,[10]; [27],11.5 MFI
same,fluorescence intensity,[10]; [28],12 MFI
same,fluorescence intensity,[10]; [29],13 MFI
same,fluorescence intensity,[10]; [30],12 MFI
same,fluorescence intensity,[10]; [31],13 MFI
same,fluorescence intensity,[10]; [32],13 MFI
same,fluorescence intensity,[10]; [25],15 MFI
same,fluorescence intensity,[10]; [26],27 MFI
same,fluorescence intensity,[11]; [27],10.5 MFI
same,fluorescence intensity,[11]; [28],11.5 MFI
same,fluorescence intensity,[11]; [29],10.5 MFI
same,fluorescence intensity,[11]; [30],12.5 MFI
same,fluorescence intensity,[11]; [31],11 MFI
same,fluorescence intensity,[11]; [32],12 MFI
same,fluorescence intensity,[11]; [25],12.8 MFI
same,fluorescence intensity,[11]; [26],32 MFI
same,fluorescence intensity,[12]; [27],15 MFI
same,fluorescence intensity,[12]; [28],15 MFI
same,fluorescence intensity,[12]; [29],14 MFI
same,fluorescence intensity,[12]; [30],14 MFI
same,fluorescence intensity,[12]; [31],15.2 MFI
same,fluorescence intensity,[12]; [32],17 MFI
same,fluorescence intensity,[12]; [25],24 MFI
same,fluorescence intensity,[12]; [26],97.2 MFI
same,fluorescence intensity,[13]; [27],23.5 MFI
same,fluorescence intensity,[13]; [28],23.5 MFI
same,fluorescence intensity,[13]; [29],23.2 MFI
same,fluorescence intensity,[13]; [30],23.5 MFI
same,fluorescence intensity,[13]; [31],25.2 MFI
same,fluorescence intensity,[13]; [32],24 MFI
same,fluorescence intensity,[13]; [25],26 MFI
same,fluorescence intensity,[13]; [26],36.2 MFI
same,fluorescence intensity,[14]; [27],10.5 MFI
same,fluorescence intensity,[14]; [28],11 MFI
same,fluorescence intensity,[14]; [29],11 MFI
same,fluorescence intensity,[14]; [30],11 MFI
same,fluorescence intensity,[14]; [31],10.5 MFI
same,fluorescence intensity,[14]; [32],11 MFI
same,fluorescence intensity,[14]; [25],13 MFI
same,fluorescence intensity,[14]; [26],21.5 MFI
same,fluorescence intensity,[15]; [27],23.2 MFI
same,fluorescence intensity,[15]; [28],22.5 MFI
same,fluorescence intensity,[15]; [29],22.5 MFI
same,fluorescence intensity,[15]; [30],23 MFI
same,fluorescence intensity,[15]; [31],23 MFI
same,fluorescence intensity,[15]; [32],23 MFI
same,fluorescence intensity,[15]; [25],25.5 MFI
same,fluorescence intensity,[15]; [26],60.5 MFI
same,fluorescence intensity,[16]; [27],14.5 MFI
same,fluorescence intensity,[16]; [28],16 MFI
same,fluorescence intensity,[16]; [29],15 MFI
same,fluorescence intensity,[16]; [30],15 MFI
same,fluorescence intensity,[16]; [31],16 MFI
same,fluorescence intensity,[16]; [32],15.5 MFI
same,fluorescence intensity,[16]; [25],16.5 MFI
same,fluorescence intensity,[16]; [26],25.5 MFI
same,fluorescence intensity,[17]; [27],11.5 MFI
same,fluorescence intensity,[17]; [28],11.5 MFI
same,fluorescence intensity,[17]; [29],11.8 MFI
same,fluorescence intensity,[17]; [30],11.5 MFI
same,fluorescence intensity,[17]; [31],11 MFI
same,fluorescence intensity,[17]; [32],12 MFI
same,fluorescence intensity,[17]; [25],15.5 MFI
same,fluorescence intensity,[17]; [26],42.5 MFI
same,fluorescence intensity,[18]; [27],19.8 MFI
same,fluorescence intensity,[18]; [28],20.8 MFI
same,fluorescence intensity,[18]; [29],21.5 MFI
same,fluorescence intensity,[18]; [30],18.5 MFI
same,fluorescence intensity,[18]; [31],21.2 MFI
same,fluorescence intensity,[18]; [32],21.5 MFI
same,fluorescence intensity,[18]; [25],28.2 MFI
same,fluorescence intensity,[18]; [26],52.8 MFI
same,fluorescence intensity,[19]; [27],8.5 MFI
same,fluorescence intensity,[19]; [28],8 MFI
same,fluorescence intensity,[19]; [29],8.5 MFI
same,fluorescence intensity,[19]; [30],8.75 MFI
same,fluorescence intensity,[19]; [31],9 MFI
same,fluorescence intensity,[19]; [32],9.75 MFI
same,fluorescence intensity,[19]; [25],12.5 MFI
same,fluorescence intensity,[19]; [26],51 MFI
same,fluorescence intensity,[20]; [27],20.2 MFI
same,fluorescence intensity,[20]; [28],21.5 MFI
same,fluorescence intensity,[20]; [29],20.8 MFI
same,fluorescence intensity,[20]; [30],21 MFI
same,fluorescence intensity,[20]; [31],21 MFI
same,fluorescence intensity,[20]; [32],22.5 MFI
same,fluorescence intensity,[20]; [25],27 MFI
same,fluorescence intensity,[20]; [26],40 MFI
same,fluorescence intensity,[21]; [27],20 MFI
same,fluorescence intensity,[21]; [28],18.5 MFI
same,fluorescence intensity,[21]; [29],17 MFI
same,fluorescence intensity,[21]; [30],18 MFI
same,fluorescence intensity,[21]; [31],19 MFI
same,fluorescence intensity,[21]; [32],20 MFI
same,fluorescence intensity,[21]; [25],23.5 MFI
same,fluorescence intensity,[21]; [26],38 MFI
same,fluorescence intensity,[22]; [27],20 MFI
same,fluorescence intensity,[22]; [28],19 MFI
same,fluorescence intensity,[22]; [29],31.5 MFI
same,fluorescence intensity,[22]; [30],61.5 MFI
same,fluorescence intensity,[22]; [31],61 MFI
same,fluorescence intensity,[22]; [32],66 MFI
same,fluorescence intensity,[22]; [25],73 MFI
same,fluorescence intensity,[22]; [26],82.5 MFI
same,fluorescence intensity,[23]; [27],17 MFI
same,fluorescence intensity,[23]; [28],15.5 MFI
same,fluorescence intensity,[23]; [29],17 MFI
same,fluorescence intensity,[23]; [30],14.8 MFI
same,fluorescence intensity,[23]; [31],17 MFI
same,fluorescence intensity,[23]; [32],17.2 MFI
same,fluorescence intensity,[23]; [25],18 MFI
same,fluorescence intensity,[23]; [26],33.8 MFI
same,fluorescence intensity,[24]; [27],18.5 MFI
same,fluorescence intensity,[24]; [28],20 MFI

# Rewritten bar-delimited: entries from further up
binder | measurement | setting | value
B1 | fluorescence intensity | [21]; [29] | 17 MFI
same | fluorescence intensity | [21]; [30] | 18 MFI
same | fluorescence intensity | [21]; [31] | 19 MFI
same | fluorescence intensity | [21]; [32] | 20 MFI
same | fluorescence intensity | [21]; [25] | 23.5 MFI

# A second format for part of the listing above:
binder	measurement	setting	value
B1	fluorescence intensity	[17]; [26]	42.5 MFI
same	fluorescence intensity	[18]; [27]	19.8 MFI
same	fluorescence intensity	[18]; [28]	20.8 MFI
same	fluorescence intensity	[18]; [29]	21.5 MFI
same	fluorescence intensity	[18]; [30]	18.5 MFI

# As a short view, part of the list above.
binder,measurement,setting,value
B1,fluorescence intensity,[7]; [31],17.5 MFI
same,fluorescence intensity,[7]; [32],20.5 MFI
same,fluorescence intensity,[7]; [25],25.5 MFI
same,fluorescence intensity,[7]; [26],46.8 MFI
